According to PubChem BioAssay AID2685 (National Center for Advancing Translational Sciences (NCATS), 2010):
This is one part of the list. The main result of the screen is listed elsewhere. These columns were measured beside it and carry no call. Compounds called inactive in the main read-out are mostly missing here. Potencies come from curve fits of mixed quality, noted in brackets.

Test: qHTS Assay for Lipid Storage Modulators in Drosophila S3 Cells;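 on cell number change: cells counted by Cell Tracker Red CMTPX staining in the red channel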
Conditions: BODIPY lipid droplet fluorescence, 18-24 h; for cell number change: measured here: cell count max response, cells fed with added oleic acid
How it was run: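 Drosophila S3 cells got compounds at several concentrations plus oleic acid (400 uM solution). Laser-scanning cytometry with 488 nm excitation read lipid droplets at 500-530 nm and cells at 575-640 nm. Percent activity was relative to 20 uM Triacsin C.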

[1] = measured here: lipid fluorescence (Fed channel) AC50, cells fed with added oleic acid
[2] = measured here: cell number channel AC50, cells fed with added oleic acid

SMILES	cell number change [%]	AC50 [1]	AC50 [2]
COCC1CCN(Cc2nc(Cc3ccccc3Cl)no2)CC1	10.4	4.61 µM [rising, partial curve]	
C/C(CC(=O)Nc1ccc2c(c1)OCCO2)=N\NC(=O)Cc1ccccc1	6.41		
CCN1CCN(Cc2ccc(NC(=O)c3ccc(C)c(NC(=O)c4cccc(-c5cn[nH]c(=O)c5)c4)c3)cc2C(F)(F)F)CC1	-5.83		
Cc1ccc(NC(=O)N2CCC(C(=O)NCCC3=CCCCC3)CC2)cc1	-58.5	2.31 µM [falling, full curve]	2.59 µM [falling, full curve]
CCOC(=O)c1ccc(N2C(=O)C(O)=C(C(C)=O)C2c2ccc(O)c(OC)c2)cc1 (centres undefined)	16.7	8.2 µM [falling, partial curve, poor fit]	
CC(C)CC(=O)Nc1cccc(-c2csc(-c3ccccc3)n2)c1	-54.3		20.6 µM [falling, single point]
CC(C)[C@H](NC(=O)C1CCN(S(=O)(=O)c2ccccc2)CC1)C(=O)NCc1ccccc1	82.7		29.1 µM [rising, single point]
COc1ccc(OC)c(NC(=O)c2nc(-c3ccccc3)oc2C)c1	-5	0.103 µM [falling, full curve, poor fit]	
COC(=O)C1=C(N)OC2=C(C(=O)CCC2)C1c1ccccc1OC (centres undefined)	3.95	2.06 µM [falling, single point]	0.00517 µM [rising, full curve, poor fit]
Clc1ccc(-c2csc(N3CCOCC3)n2)cc1	5.74	6.51 µM [rising, single point]	6.51 µM [rising, single point]
O=C1CC(c2ccco2)CC(O)=C1C=NCCO (centres undefined)	16.6	4.11 µM [falling, partial curve]	
C=CCSc1nc(O)c(C2OC(=O)c3c2ccc(OC)c3OC)c(=O)n1-c1ccccc1 (centres undefined)	17.9	29.1 µM [rising, single point]	
CCOc1ccc(-c2nc(CS(=O)(=O)CC(=O)NCc3ccc(F)cc3)c(C)o2)cc1	40.6	3.26 µM [rising, partial curve, poor fit]	18.4 µM [rising, partial curve]
CC(C)Cn1c(SCC(=O)N2CCc3ccccc3C2)nc2cc(Cl)ccc2c1=O	37.3	10.3 µM [rising, partial curve]	2.91 µM [rising, full curve]
COc1ccccc1/C=C/CN1CCNC(=O)C1CC(=O)NCCc1cnccn1 (centres undefined)	3.83	1.64 µM [falling, partial curve]	
COCc1cc(C(C)=O)ccc1OCC(=O)Nc1ccc(NC(C)=O)cc1	1.71		
CC1CCN(c2nc(-c3ccccc3)c(C#N)c(=O)[nH]2)CC1	2.36	29.1 µM [rising, single point]	
COc1ccc(NC(=O)c2ccc(OC)cc2)cc1	5.89		
CNc1nc2[nH]c(=O)c3c(c2s1)OC(N)=C(C#N)C3c1ccccc1 (centres undefined)		0.116 µM [falling, full curve, poor fit]	
CCCCCn1c(=O)[nH]c2cc(C(=O)NCCCN(C)Cc3ccccc3)ccc2c1=O	6.11	0.259 µM [rising, partial curve, poor fit]	0.103 µM [rising, full curve, poor fit]

SMILES	cell number change [%]	AC50 [1]	AC50 [2]
COc1ccc(CNC2CCCCC2)cc1	9.33		
O=c1n(Cc2ccccc2F)c2ccccc2n1Cc1ccccc1F	18.9	6.51 µM [rising, single point]	
Cc1ccc(S(=O)(=O)N2CCC(=O)N(CCOC(=O)Nc3ccc(C)c(C)c3)CC2)cc1	8.92	5.8 µM [rising, partial curve, poor fit]	
CCOC(=O)/C=C/[C@H]1CC2(CCO1)SCCCS2	-24	5.8 µM [rising, partial curve, poor fit]	
Cc1cccc(N2CCN(S(=O)(=O)c3cccc4nonc34)CC2C)c1 (centres undefined)	35	8.2 µM [rising, partial curve]	11.6 µM [rising, partial curve]
CC(=O)N1CCc2cc(C(=O)CN3CCN(C(=O)c4ccco4)CC3)ccc21	3.07	0.146 µM [falling, full curve, poor fit]	
C/C(=N\NC(=O)c1ccc(O)cc1O)c1cccnc1		29.1 µM [rising, single point]	1.64 µM [falling, partial curve]
CCOC(=O)C1CCN(C(=O)c2ccc(Cl)c(NC3=NC4CS(=O)(=O)CC4S3)c2)CC1 (centres undefined)	-0.372	32.6 µM [falling, single point]	
O=C(Nc1ccc(S(=O)(=O)NC2CCCCC2)cc1)c1ccc(Br)o1	-33.6		29.1 µM [falling, single point]
Fc1ccccc1CN1CCCCCCC1	-46.9	9.2 µM [falling, partial curve]	8.2 µM [falling, partial curve]
Cc1cccc(NC(=O)c2ccc3c(c2)OCCO3)c1	0.952		
O=C(NC1CCCCC1)/C(=N\O)c1ccccn1	5.6	23.1 µM [falling, partial curve]	
O=C(CSc1nnc(Cn2nnc3ccccc32)o1)N(Cc1ccc(F)cc1)c1ccccc1	-27.9	29.1 µM [falling, single point]	
O=C(NCCN1CCOCC1)C(=O)c1c[nH]c2ccccc12	-9.13		
Cc1c(Br)c([N+](=O)[O-])nn1CC(=O)NCCc1ccc(Cl)cc1	17.5		
CCOc1ccc(C(=O)NCC(=O)NCCOc2ccc(C)cc2)cc1	-10.4	29.1 µM [falling, single point]	
Cc1nnc(NC(=O)CC(CN(C)S(=O)(=O)c2ccccc2)c2ccccc2)s1 (centres undefined)	-14.5	29.1 µM [falling, single point]	
O=C(CC12CC3CC(CC(C3)C1)C2)NC(Cc1ccccc1)C(=O)O (centres undefined)	18.8		0.0517 µM [falling, full curve, poor fit]
CCCC(=O)Nc1ccc2c(c1)nc(CCN1CCN(c3ccccn3)CC1)n2C	14.9		
CCOC(=O)[C@H]1[C@H]2COc3cc(OC)ccc3[C@@H]2N2C(=O)c3cc(OC)c(OC)cc3NC(=O)[C@@]12C	26.7	16.4 µM [rising, partial curve, poor fit]	0.82 µM [rising, full curve, poor fit]

Pulled by structure from the list above:
SMILES	cell number change [%]	AC50 [1]	AC50 [2]
C/C(=N\NC(=O)c1ccc(O)cc1O)c1cccnc1		29.1 µM [rising, single point]	1.64 µM [falling, partial curve]
O=C(NC1CCCCC1)/C(=N\O)c1ccccn1	5.6	23.1 µM [falling, partial curve]	

Remaining list, next part.

SMILES	cell number change [%]	AC50 [1]	AC50 [2]
C[C@]12CC(O)C3C(CCC4=CC(=O)CC[C@@]43C)C1CCC2c1csc(-c2ccccc2)n1 (some centres undefined)	18.6		
COc1ccc2c(c1)CC/C(=C/c1ccccn1)C2=O	-21.3	0.103 µM [falling, full curve, poor fit]	
COc1ccc2oc(=O)c(C(=O)C[n+]3cccc(C)c3)cc2c1	-52.9		
CC(C)C(NS(=O)(=O)c1cccc2nsnc12)C(=O)N1CCn2c1nc1ccccc12 (centres undefined)	-46	29.1 µM [falling, single point]	29.1 µM [falling, single point]
COC(=O)C1CCN(C(=O)COC(=O)Cc2c[nH]c3ccccc23)CC1	-38.3	0.146 µM [falling, full curve, poor fit]	1.84 µM [falling, partial curve, poor fit]
CCOC(=O)c1[nH]c2ccc(F)cc2c1NC(=O)CN1CCc2cc(OC)c(OC)cc2C1	-1.81	0.92 µM [rising, partial curve]	
CC(C)C(NC(=O)c1ccc(Cl)cc1)C(=O)O (centres undefined)	-98.3	18.4 µM [falling, partial curve]	29.1 µM [falling, single point]
O=C(Nc1ccc2ccccc2c1)[C@@H]1C[C@H]1[C@@H](NP(=O)(c1ccccc1)c1ccccc1)c1ccccc1	-0.764	2.31 µM [rising, partial curve]	
O=C(CSc1ncnc2[nH]ncc12)Nc1nc(-c2ccc(F)c(F)c2)cs1	36.9		11.6 µM [rising, single point]
CCc1c(C(=O)NC2CCCc3ccccc32)[nH]c(C)c1C(C)=O (centres undefined)	-10.7		
Cc1ccc(-c2nc3cnccn3c2Nc2ccc3c(c2)OCO3)o1		1.64 µM [rising, partial curve]	1.64 µM [rising, partial curve]
Cc1ccccc1S(=O)(=O)c1c(C)cc(C)n(C(C)C)c1=O	-11.4	29.1 µM [falling, single point]	
Cc1cc(C(C)(C)C)cc(C)c1COC(=O)C1CCC(=O)N1 (centres undefined)	-13.2		
Cc1cccc(/C=N/NC(=O)NC23CC4CC(CC(C4)C2)C3)n1	-10.4	0.82 µM [rising, partial curve]	
Cc1cc(C(=O)COC(=O)Cn2cnc3c2c(=O)n(C)c(=O)n3C)c(C)n1C	6.43	0.651 µM [falling, full curve, poor fit]	0.13 µM [falling, full curve, poor fit]
Cc1ccc(C(=O)N2CCN(S(=O)(=O)c3ccccc3)CC2)cc1		0.92 µM [rising, full curve, poor fit]	4.11 µM [rising, single point]
CCOc1ncccc1C(=O)OCC(=O)NCCc1ccc(S(N)(=O)=O)cc1	-13.6	29.1 µM [rising, single point]	
COCCn1c(N2CCCC2)nc2c1c(=O)[nH]c(=O)n2C	32.8		
